Sequences of proteins named here, by UniProt entry; tags and fusion partners are left off.
UniProt O95758: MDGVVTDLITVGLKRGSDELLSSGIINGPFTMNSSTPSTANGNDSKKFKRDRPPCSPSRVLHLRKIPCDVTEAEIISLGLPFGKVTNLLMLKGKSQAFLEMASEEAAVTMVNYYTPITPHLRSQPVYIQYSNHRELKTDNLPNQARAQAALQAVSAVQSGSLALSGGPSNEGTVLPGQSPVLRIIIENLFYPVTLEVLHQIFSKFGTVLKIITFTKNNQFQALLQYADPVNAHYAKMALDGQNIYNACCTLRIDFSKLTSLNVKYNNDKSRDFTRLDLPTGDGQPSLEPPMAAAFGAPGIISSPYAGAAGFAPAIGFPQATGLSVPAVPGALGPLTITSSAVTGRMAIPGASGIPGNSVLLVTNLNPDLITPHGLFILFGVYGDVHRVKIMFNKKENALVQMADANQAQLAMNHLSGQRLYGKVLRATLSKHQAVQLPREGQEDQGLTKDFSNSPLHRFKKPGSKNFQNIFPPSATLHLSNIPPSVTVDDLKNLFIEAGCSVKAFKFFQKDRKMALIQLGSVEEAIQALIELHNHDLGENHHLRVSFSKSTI
UniProt P67809: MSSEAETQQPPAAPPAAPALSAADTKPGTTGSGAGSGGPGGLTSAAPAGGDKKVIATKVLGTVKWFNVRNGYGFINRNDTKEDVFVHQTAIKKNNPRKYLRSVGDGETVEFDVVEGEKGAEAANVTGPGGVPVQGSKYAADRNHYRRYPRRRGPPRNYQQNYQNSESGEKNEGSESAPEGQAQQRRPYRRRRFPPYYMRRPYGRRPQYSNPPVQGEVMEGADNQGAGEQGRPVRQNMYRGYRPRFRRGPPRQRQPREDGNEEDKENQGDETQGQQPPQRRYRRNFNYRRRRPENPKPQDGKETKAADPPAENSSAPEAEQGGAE

According to publication PMC6622005:

Molecular target: Polypyrimidine tract-binding protein 3 (PTBP3), Flag-tagged (human) (UniProt O95758)
Assay: affinity purification with mass spectrometry; Flag-tag pull-down of PTBP3 followed by LC-MS; cell line and conditions not stated

Q: How did the binding turn out when YBX1 (from UniProt P67809 1-324) was run?
A: binds

B1: HNRNPM (protein, UniProt P52272 1-730)
chain: MAAGVEAAAEVAATEIKMEEESGAPGVPSGNGAPGPKGEGERPAQNEKRKEKNIKRGGNRFEPYANPTKRYRAFITNIPFDVKWQSLKDLVKEKVGEVTYVELLMDAEGKSRGCAVVEFKMEESMKKAAEVLNKHSLSGRPLKVKEDPDGEHARRAMQKVMATTGGMGMGPGGPGMITIPPSILNNPNIPNEIIHALQAGRLGSTVFVANLDYKVGWKKLKEVFSMAGVVVRADILEDKDGKSRGIGTVTFEQSIEAVQAISMFNGQLLFDRPMHVKMDERALPKGDFFPPERPQQLPHGLGGIGMGLGPGGQPIDANHLNKGIGMGNIGPAGMGMEGIGFGINKMGGMEGPFGGGMENMGRFGSGMNMGRINEILSNALKRGEIIAKQGGGGGGGSVPGIERMGPGIDRLGGAGMERMGAGLGHGMDRVGSEIERMGLVMDRMGSVERMGSGIERMGPLGLDHMASSIERMGQTMERIGSGVERMGAGMGFGLERMAAPIDRVGQTIERMGSGVERMGPAIERMGLSMERMVPAGMGAGLERMGPVMDRMATGLERMGANNLERMGLERMGANSLERMGLERMGANSLERMGPAMGPALGAGIERMGLAMGGGGGASFDRAIEMERGNFGGSFAGSFGGAGGHAPGVARKACQIFVRNLPFDFTWKMLKDKFNECGHVLYADIKMENGKSKGCGVVKFESPEVAERACRMMNGMKLSGREIDVRIDRNA
Q: B1 was tested. Which binding did it give?
A: binds

B2: UPF1 (protein, UniProt Q92900 1-1129)
chain: MSVEAYGPSSQTLTFLDTEEAELLGADTQGSEFEFTDFTLPSQTQTPPGGPGGPGGGGAGGPGGAGAGAAAGQLDAQVGPEGILQNGAVDDSVAKTSQLLAELNFEEDEEDTYYTKDLPIHACSYCGIHDPACVVYCNTSKKWFCNGRGNTSGSHIVNHLVRAKCKEVTLHKDGPLGETVLECYNCGCRNVFLLGFIPAKADSVVVLLCRQPCASQSSLKDINWDSSQWQPLIQDRCFLSWLVKIPSEQEQLRARQITAQQINKLEELWKENPSATLEDLEKPGVDEEPQHVLLRYEDAYQYQNIFGPLVKLEADYDKKLKESQTQDNITVRWDLGLNKKRIAYFTLPKTDSGNEDLVIIWLRDMRLMQGDEICLRYKGDLAPLWKGIGHVIKVPDNYGDEIAIELRSSVGAPVEVTHNFQVDFVWKSTSFDRMQSALKTFAVDETSVSGYIYHKLLGHEVEDVIIKCQLPKRFTAQGLPDLNHSQVYAVKTVLQRPLSLIQGPPGTGKTVTSATIVYHLARQGNGPVLVCAPSNIAVDQLTEKIHQTGLKVVRLCAKSREAIDSPVSFLALHNQIRNMDSMPELQKLQQLKDETGELSSADEKRYRALKRTAERELLMNADVICCTCVGAGDPRLAKMQFRSILIDESTQATEPECMVPVVLGAKQLILVGDHCQLGPVVMCKKAAKAGLSQSLFERLVVLGIRPIRLQVQYRMHPALSAFPSNIFYEGSLQNGVTAADRVKKGFDFQWPQPDKPMFFYVTQGQEEIASSGTSYLNRTEAANVEKITTKLLKAGAKPDQIGIITPYEGQRSYLVQYMQFSGSLHTKLYQEVEIASVDAFQGREKDFIILSCVRANEHQGIGFLNDPRRLNVALTRARYGVIIVGNPKALSKQPLWNHLLNYYKEQKVLVEGPLNNLRESLMQFSKPRKLVNTINPGARFMTTAMYDAREAIIPGSVYDRSSQGRPSSMYFQTHDQIGMISAGPSHVAAMNIPIPFNLVMPPMPPPGYFGQANGPAAGRGTPKGKTGRGGRQKNRFGLPGPSQTNLPNSQASQDVASQPFSQGALTQGYISMSQPSQMSQPGLSQPELSQDSYLGDEFKSQIDVALSQDSTYQGERAYQHGGVTGLSQY
Q: Which binding does the source give for B2 here?
A: binds

These are yes or no findings as the source states them, for the method shown. In cells and extracts the contact can be indirect. Here binding means that the protein was enriched with, or labelled near, the bait; the list need not be complete.
